The source of these data is article doi:10.1101/2020.09.06.285270.

By UniProt entry, the sequences of proteins in these tests, tags left out. Where a name states a change or a piece, a line headed by the entry shows the natural chain unless it says otherwise. Chains listed by the source or under a name are the forms on record and can include a tag or linker. Residues count along the entry.
UniProt P54760, residues 16-987: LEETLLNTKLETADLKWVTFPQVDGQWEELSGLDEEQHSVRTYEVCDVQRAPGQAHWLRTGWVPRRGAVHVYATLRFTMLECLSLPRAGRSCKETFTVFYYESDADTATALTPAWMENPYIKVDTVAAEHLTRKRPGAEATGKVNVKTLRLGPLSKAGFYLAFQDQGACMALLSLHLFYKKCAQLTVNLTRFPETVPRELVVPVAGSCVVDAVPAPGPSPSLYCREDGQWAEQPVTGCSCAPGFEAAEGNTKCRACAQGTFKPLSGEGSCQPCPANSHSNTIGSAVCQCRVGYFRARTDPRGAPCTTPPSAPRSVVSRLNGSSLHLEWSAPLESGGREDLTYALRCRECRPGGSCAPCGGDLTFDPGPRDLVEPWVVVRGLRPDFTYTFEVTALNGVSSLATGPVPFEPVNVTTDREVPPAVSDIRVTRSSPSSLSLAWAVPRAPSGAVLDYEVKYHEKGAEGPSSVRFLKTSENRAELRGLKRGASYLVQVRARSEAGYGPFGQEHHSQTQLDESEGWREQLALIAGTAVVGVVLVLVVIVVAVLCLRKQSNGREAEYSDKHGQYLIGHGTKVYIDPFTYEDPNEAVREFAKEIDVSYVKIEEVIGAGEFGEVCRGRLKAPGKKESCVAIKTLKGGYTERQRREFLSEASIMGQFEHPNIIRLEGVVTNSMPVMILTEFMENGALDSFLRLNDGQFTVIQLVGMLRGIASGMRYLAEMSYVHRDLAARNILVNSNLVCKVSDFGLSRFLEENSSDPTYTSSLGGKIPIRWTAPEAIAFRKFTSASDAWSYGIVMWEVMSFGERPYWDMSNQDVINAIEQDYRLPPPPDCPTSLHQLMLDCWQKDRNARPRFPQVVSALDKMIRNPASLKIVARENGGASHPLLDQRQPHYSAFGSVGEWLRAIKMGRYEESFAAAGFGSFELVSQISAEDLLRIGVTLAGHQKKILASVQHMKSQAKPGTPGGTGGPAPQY
UniProt P54753, residues 34-998: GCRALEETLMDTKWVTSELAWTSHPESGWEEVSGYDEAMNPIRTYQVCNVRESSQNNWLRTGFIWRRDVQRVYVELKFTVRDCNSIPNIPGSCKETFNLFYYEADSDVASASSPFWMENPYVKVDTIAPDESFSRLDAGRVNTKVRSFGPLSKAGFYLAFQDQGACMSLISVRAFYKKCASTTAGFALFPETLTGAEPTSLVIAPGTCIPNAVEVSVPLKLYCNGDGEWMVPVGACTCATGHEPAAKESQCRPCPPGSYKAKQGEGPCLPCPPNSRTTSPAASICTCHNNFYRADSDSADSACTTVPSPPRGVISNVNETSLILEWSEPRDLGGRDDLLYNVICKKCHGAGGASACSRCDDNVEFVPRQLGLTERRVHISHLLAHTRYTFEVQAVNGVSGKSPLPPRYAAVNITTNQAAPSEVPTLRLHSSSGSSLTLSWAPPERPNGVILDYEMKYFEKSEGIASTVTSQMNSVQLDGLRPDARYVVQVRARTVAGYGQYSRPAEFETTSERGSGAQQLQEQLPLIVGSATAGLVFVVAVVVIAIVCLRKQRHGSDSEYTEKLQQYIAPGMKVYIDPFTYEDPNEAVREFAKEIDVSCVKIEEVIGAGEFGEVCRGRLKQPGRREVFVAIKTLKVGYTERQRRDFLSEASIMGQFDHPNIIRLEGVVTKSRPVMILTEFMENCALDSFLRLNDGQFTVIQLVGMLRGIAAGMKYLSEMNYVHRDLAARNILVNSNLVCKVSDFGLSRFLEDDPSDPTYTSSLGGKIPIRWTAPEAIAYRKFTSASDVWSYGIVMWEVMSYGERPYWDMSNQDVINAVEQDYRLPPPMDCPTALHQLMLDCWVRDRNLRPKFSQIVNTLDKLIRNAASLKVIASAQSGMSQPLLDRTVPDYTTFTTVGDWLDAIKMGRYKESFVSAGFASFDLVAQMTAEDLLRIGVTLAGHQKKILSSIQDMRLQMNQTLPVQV
EPHA4 wild type (murine) (Q03137, residues 20-986): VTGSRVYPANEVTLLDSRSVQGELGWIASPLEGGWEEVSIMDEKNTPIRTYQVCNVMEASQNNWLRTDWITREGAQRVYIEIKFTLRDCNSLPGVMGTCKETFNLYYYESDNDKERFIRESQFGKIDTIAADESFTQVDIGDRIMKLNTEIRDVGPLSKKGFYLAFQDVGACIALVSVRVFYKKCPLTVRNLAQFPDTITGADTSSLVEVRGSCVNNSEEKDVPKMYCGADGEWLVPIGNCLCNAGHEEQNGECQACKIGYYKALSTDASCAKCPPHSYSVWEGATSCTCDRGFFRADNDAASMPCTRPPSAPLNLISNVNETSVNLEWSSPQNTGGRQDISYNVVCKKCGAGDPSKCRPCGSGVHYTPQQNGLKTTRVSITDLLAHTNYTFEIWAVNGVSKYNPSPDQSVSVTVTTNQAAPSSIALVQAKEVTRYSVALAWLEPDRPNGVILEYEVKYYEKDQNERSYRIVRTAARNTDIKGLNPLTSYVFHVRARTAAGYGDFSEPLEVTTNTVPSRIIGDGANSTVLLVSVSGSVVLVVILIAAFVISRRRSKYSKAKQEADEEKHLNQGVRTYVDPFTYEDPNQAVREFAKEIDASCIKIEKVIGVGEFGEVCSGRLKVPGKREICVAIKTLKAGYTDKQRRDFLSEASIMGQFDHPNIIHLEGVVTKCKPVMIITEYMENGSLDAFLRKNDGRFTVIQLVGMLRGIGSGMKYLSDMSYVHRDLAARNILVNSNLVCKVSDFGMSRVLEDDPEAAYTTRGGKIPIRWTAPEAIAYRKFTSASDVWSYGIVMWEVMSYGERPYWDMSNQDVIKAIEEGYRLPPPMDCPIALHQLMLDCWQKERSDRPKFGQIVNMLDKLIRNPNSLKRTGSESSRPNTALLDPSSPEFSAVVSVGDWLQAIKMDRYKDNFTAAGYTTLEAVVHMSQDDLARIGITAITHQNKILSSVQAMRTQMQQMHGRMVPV
EPHA4 kinase dead (KD; K653A) (murine) (Q03137, form named): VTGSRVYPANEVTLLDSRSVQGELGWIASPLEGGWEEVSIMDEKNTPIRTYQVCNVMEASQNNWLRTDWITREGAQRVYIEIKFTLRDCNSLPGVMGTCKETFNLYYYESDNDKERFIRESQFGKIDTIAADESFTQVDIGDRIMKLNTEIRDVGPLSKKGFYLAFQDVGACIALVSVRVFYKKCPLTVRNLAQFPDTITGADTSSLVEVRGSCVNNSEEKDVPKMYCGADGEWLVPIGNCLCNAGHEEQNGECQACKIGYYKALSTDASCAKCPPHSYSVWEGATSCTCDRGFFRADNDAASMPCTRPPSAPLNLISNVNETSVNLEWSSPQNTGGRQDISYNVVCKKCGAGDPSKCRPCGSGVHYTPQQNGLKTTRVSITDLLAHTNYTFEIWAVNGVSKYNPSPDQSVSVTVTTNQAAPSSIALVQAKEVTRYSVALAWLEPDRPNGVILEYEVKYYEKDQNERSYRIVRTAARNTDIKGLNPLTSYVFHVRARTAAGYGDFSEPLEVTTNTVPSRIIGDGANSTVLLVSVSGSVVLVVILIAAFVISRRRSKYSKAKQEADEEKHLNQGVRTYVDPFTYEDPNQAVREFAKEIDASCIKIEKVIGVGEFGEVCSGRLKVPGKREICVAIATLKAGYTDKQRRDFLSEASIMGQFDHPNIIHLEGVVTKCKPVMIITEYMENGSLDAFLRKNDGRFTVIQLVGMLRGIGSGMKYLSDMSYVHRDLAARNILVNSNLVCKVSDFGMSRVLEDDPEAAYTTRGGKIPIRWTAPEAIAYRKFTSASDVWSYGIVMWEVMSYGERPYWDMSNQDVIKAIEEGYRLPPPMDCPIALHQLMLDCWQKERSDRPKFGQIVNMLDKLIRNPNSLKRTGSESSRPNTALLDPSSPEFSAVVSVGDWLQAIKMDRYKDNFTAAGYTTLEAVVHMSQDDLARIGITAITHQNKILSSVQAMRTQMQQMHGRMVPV
UniProt P54764, residues 20-986: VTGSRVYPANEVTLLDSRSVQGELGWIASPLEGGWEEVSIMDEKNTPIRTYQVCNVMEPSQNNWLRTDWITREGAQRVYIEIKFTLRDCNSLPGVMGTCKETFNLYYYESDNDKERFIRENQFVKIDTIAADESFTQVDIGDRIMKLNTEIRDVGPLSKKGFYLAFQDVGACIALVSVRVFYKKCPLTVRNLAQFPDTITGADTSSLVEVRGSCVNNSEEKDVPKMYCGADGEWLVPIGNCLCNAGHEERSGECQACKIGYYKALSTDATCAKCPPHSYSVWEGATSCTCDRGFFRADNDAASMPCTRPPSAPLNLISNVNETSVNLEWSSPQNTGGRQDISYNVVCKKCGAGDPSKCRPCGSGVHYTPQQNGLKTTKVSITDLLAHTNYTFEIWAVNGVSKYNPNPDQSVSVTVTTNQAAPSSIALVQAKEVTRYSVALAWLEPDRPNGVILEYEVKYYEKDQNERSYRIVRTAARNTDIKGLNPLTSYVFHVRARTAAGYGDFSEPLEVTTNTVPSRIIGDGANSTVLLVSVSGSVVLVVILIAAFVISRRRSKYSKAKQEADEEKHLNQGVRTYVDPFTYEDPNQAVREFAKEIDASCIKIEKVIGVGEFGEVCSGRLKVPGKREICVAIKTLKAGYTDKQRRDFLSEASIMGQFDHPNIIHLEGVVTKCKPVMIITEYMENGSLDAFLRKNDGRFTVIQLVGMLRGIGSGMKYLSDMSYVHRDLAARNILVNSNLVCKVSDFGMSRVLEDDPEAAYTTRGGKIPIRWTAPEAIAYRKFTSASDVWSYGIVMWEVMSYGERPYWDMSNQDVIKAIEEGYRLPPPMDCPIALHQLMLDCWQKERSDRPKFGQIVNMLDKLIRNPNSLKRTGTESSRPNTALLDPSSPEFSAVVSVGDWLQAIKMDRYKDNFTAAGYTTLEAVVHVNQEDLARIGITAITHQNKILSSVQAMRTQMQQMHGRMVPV

Like-named read-outs stand apart in the source and are kept apart here. Results are given in words; binding and its absence hold for the method and conditions named. In cells and extracts the contact can be indirect. Some binding calls cover weakened binding; strength is not graded here. For part of these data: Tags and fused reporters may be left off the sequences shown.

In test [1] the target is GFP-PAR-3 (wild type) (rat) (UniProt Q9Z340). Briefly: co-IP.
Test [2] addresses T1, GFP-PAR-3 Y1127F (rat) (UniProt Q9Z340).
T1 sequence: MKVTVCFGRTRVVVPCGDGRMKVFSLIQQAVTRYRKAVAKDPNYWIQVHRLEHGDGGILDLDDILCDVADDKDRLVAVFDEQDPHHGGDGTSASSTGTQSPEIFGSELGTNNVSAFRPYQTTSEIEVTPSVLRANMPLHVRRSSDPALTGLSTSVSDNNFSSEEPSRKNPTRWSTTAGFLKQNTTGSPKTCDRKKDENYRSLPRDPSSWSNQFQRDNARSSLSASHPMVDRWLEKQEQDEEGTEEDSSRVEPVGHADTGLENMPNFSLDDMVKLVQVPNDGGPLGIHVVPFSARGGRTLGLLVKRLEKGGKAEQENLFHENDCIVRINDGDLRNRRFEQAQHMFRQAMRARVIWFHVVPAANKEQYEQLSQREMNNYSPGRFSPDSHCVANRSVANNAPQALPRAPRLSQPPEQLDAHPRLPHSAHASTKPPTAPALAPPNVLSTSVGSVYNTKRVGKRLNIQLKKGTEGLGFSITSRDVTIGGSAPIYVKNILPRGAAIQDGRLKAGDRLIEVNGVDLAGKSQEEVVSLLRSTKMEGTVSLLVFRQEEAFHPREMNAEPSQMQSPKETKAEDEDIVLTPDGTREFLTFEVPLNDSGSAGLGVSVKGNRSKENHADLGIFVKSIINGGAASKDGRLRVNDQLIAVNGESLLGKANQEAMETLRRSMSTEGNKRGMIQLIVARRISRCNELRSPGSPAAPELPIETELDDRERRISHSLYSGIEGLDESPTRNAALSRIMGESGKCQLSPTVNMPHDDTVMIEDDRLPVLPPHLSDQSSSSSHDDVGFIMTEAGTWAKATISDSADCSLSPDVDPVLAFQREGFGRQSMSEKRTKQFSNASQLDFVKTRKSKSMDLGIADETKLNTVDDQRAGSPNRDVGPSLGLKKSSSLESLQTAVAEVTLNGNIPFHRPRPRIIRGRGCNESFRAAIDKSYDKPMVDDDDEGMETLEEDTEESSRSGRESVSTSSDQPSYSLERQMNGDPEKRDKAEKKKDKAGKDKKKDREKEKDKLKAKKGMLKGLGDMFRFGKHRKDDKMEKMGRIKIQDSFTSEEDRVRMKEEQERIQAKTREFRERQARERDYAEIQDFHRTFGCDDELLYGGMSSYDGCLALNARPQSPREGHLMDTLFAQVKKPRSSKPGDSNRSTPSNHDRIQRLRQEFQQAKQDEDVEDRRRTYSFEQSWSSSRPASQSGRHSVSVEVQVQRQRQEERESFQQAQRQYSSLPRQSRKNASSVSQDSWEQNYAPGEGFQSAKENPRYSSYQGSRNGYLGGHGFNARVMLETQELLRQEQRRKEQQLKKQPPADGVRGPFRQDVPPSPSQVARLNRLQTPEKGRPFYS
Description: co-IP.

Test [3] has as its target T1, GFP-PAR-3 Y1127F (rat). Briefly: co-IP. The source holds these as a separate data set.
Another test has as its target T2, GST-CSK SH2 domain (UniProt P41240).
T2 sequence: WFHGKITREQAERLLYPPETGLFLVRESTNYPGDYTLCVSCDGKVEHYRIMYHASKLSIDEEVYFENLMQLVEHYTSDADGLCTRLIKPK
Briefly: pull-down.

On to “EPHB4-BirA*-FLAG (from UniProt P54760 16-987) (receptor)”, for which, in test [1], the binding entry was “binds”.

For the substance “EPHB3-BirA*-FLAG (from UniProt P54753 34-998) (receptor)”, the binding entry in test [1] is on record as “binds”. Same read-out and setting: with “EPHA4 kinase dead (KD; K653A) (murine) (from UniProt Q03137 20-986) (receptor)” the entry was “binds”. As to “C-terminal SRC kinase (CSK), endogenous (from UniProt P41240 1-450) (enzyme)”, the binding result with GFP-PAR-3 Y1127F (rat) [2] and in the test with GFP-PAR-3 Y1127F (rat) [3] was “no binding” each time. As to “EPHB2-BirA*-FLAG (from UniProt P29323) (receptor)”, the binding entry in test [1] was “binds”. The same measure, in the same setting: with “EPHA4 wild type (murine) (from UniProt Q03137 20-986) (receptor)” the entry was “binds”. Still for that read-out and setting: with “EPHA4-BirA*-FLAG (from UniProt P54764 20-986) (receptor)” the entry was “binds”. For “GFP-PAR-3 Y1127F (from UniProt Q9Z340 1-1337)”, the binding result with GST-CSK SH2 domain is recorded as “no binding”.
